# Assay results published in PubChem BioAssay AID2685 (National Center for Advancing Translational Sciences (NCATS), 2010).
# Some of the results follow. Further columns of the screen follow, without active or inactive calls. The list favours compounds with an active or inconclusive main result. The note in brackets gives the kind of curve behind each potency; many fits are weak.
# Experiment: qHTS Assay for Lipid Storage Modulators in Drosophila S3 Cells;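 on cell number change: cells counted by Cell Tracker Red CMTPX staining in the red channel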
# Details: BODIPY lipid droplet fluorescence, 18-24 h; for cell number change: measured here: cell count max response, cells fed with added oleic acid
# How it was run: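 Drosophila S3 cells got compounds at several concentrations plus oleic acid (400 uM solution). Laser-scanning cytometry with 488 nm excitation read lipid droplets at 500-530 nm and cells at 575-640 nm. Percent activity was relative to 20 uM Triacsin C.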
# [1] = measured here: lipid fluorescence (Fed channel) AC50, cells fed with added oleic acid
# [2] = measured here: cell number channel AC50, cells fed with added oleic acid
Structure (SMILES),cell number change [%],AC50 [1],AC50 [2]
Cc1ncc(CO)c(/C=N/NC(=O)c2ccc(Br)cc2)c1O,5.06,"29.1 µM [falling, single point]",–
Cc1cc(OCC(=O)NCc2ccncc2)ccc1Cl,9.82,"4.61 µM [rising, full curve, poor fit]",–
CN(C)CCCN(C(=O)c1ccc(S(=O)(=O)N2CCc3ccccc3C2)cc1)c1nc2c(F)cc(F)cc2s1,-79.1,–,"18.4 µM [falling, single point]"
O=C(OCC1OC2OC3(CCCCC3)OC2C2OC3(CCCCC3)OC12)c1ccccc1 (stereo not given),36.8,"13 µM [rising, partial curve]","10.3 µM [rising, partial curve]"
Cc1cc(NC(=O)Nc2cccs2)no1,137,"3.66 µM [falling, partial curve]","18.4 µM [rising, partial curve]"
Oc1[nH]c(=S)sc1C=C1N=c2ccccc2=N1,-57.3,"23.1 µM [falling, single point]","18.4 µM [falling, partial curve]"
Cc1cc(NC(=O)CN2C(=O)NC3(CCCCCC3)C2=O)ccc1Br,-17.4,"1.16 µM [falling, partial curve]","1.84 µM [falling, partial curve, poor fit]"
CN(Cc1ccccc1)C(=O)c1ccc(NC(=O)Cc2cccc(NC(=O)C3CCN(C(=O)C4CCCC4)CC3)c2)cc1,-16,–,–
CC1=C(C(=O)Nc2ccc(C)cc2C)C(c2ccc(C)o2)NC(=O)N1 (stereo not given),–,–,"1.84 µM [rising, partial curve]"
CCN(CC)S(=O)(=O)c1cccc(C(=O)N[C@H](C(=O)OCC(N)=O)C(C)C)c1,16.4,"29.1 µM [falling, single point]",–
CCc1ccccc1N(C)S(=O)(=O)c1ccc2[nH]cc(C(=O)O)c(=O)c2c1,–,"4.11 µM [rising, full curve]","0.231 µM [rising, full curve, poor fit]"
O=C(Nc1cccc(O)c1)c1ccc(Br)c(S(=O)(=O)N2CCCCC2)c1,-10.6,"0.164 µM [falling, partial curve]","3.66 µM [falling, partial curve, poor fit]"
Nc1ncnc2nc(SCc3ccc(Cl)cc3Cl)[nH]c12,-22.2,"6.51 µM [rising, single point]","6.51 µM [rising, single point]"
COc1cccc(NC(=S)NC(=O)c2c(Cl)c(C)nn2C)c1,17.9,"29.1 µM [rising, single point]",–
O=C(O)C1CCN(S(=O)(=O)c2cccc3nonc23)CC1,–,"29.1 µM [rising, single point]",–
CCOC(=O)c1nncc(-c2ccccc2)n1,13.5,"23.1 µM [rising, single point]",–
C=CCc1ccccc1OCC(O)CN1CCN(c2ccc(C)cc2)CC1 (stereo not given),-68.9,"29.1 µM [falling, partial curve, poor fit]","29.1 µM [falling, single point]"
CCNC(=O)COc1ccc(-c2ccccc2)cc1,39.6,–,"29.1 µM [rising, single point]"
c1ccc(NCC2OCc3ccccc3CO2)cc1,11.5,"16.4 µM [rising, partial curve]",–

# Of the compounds above, these have a Cl atom.
Structure (SMILES),cell number change [%],AC50 [1],AC50 [2]
Cc1cc(OCC(=O)NCc2ccncc2)ccc1Cl,9.82,"4.61 µM [rising, full curve, poor fit]",–
Nc1ncnc2nc(SCc3ccc(Cl)cc3Cl)[nH]c12,-22.2,"6.51 µM [rising, single point]","6.51 µM [rising, single point]"
COc1cccc(NC(=S)NC(=O)c2c(Cl)c(C)nn2C)c1,17.9,"29.1 µM [rising, single point]",–

# (further entries)

Structure (SMILES),cell number change [%],AC50 [1],AC50 [2]
CC1(C)CC(=O)C(C2(O)C(=O)N(Cc3ccccc3)c3ccccc32)CO1 (stereo not given),8.48,"29.1 µM [rising, single point]",–
O=C(O)CCc1ccc(-c2ccccc2)n1-c1cccc(O)c1,-11.8,–,"0.291 µM [falling, full curve, poor fit]"
CC1(C)CC(=O)C=C(NCc2ccco2)C1,-19.2,"23.1 µM [falling, partial curve]",–
COc1cc2c(c3oc(-c4ccccc4)cc(=O)c13)C=CC(C)(C)O2,-22,"29.1 µM [falling, single point]",–
Cc1ccccc1C(=O)c1c[nH]c(C(=O)NCc2cccs2)c1,106,–,–
Cc1ccc(N2CCN(C(=O)N3CCCC3)CC2)cc1C,32.4,"29.1 µM [falling, single point]","6.51 µM [rising, full curve, poor fit]"
O=C(COC(=O)c1cc(-c2ccc(F)cc2)nc2ccccc12)NCC1CCCO1 (stereo not given),73.9,–,–
O=C(O)CSc1nnc(-c2cccc(S(=O)(=O)N3CCCCC3)c2)o1,-17.7,"29.1 µM [falling, single point]",–
COCCOC(=O)c1[nH]c2c(c1C)C(=O)CC(c1cc(OC)ccc1OC)C2 (stereo not given),–,"1.46 µM [rising, partial curve]",–
O=C1OCCC1S(=O)(=O)c1ccc2ccccc2c1 (stereo not given),0.721,"2.59 µM [rising, single point]",–
CCCNC(=O)C(Cc1ccccc1F)NC(=O)c1ccccn1 (stereo not given),2.41,"29.1 µM [rising, single point]",–
CCc1ccc2nc(N(CCCN(C)C)C(=O)c3ccc(S(=O)(=O)N4CCCC4)cc3)sc2c1,37.5,"11.6 µM [rising, partial curve]","14.6 µM [rising, partial curve, poor fit]"
C=CC#CC1(O)CC(C)N(C)CC1C (stereo not given),-16.6,–,–
Cc1cccc(-c2noc(CCC(=O)NC3CCCC3)n2)c1,32.1,–,"0.92 µM [rising, full curve, poor fit]"
Cc1cccnc1NC(=O)CCC(=O)c1cccs1,32.7,"1.03 µM [rising, partial curve]","0.231 µM [rising, full curve, poor fit]"
Cc1cc(C)c(NC(=O)c2cccc3c2C(=O)N(C2CCCCC2)C3)c(C)c1,0.59,"29.1 µM [falling, single point]",–
CCOc1c(Cl)cc(C(=O)Nc2cccc(C(=O)O)c2)cc1Cl,4.83,"6.51 µM [falling, single point]",–
COc1cccc(/C=C2/C(=O)NN(c3ccc(C)c(C)c3)C2=O)c1,11.3,"3.66 µM [falling, full curve, poor fit]",–
COc1cc(/C=C(\C#N)c2nc3ccc(C)cc3[nH]2)cc([N+](=O)[O-])c1O,-42.4,"29.1 µM [falling, single point]","29.1 µM [falling, single point]"

Structure (SMILES),cell number change [%],AC50 [1],AC50 [2]
COc1ccccc1C1C(C(N)=O)=C(C)Nc2ncnn21 (stereo not given),3.81,"0.82 µM [falling, single point]",–
N#Cc1c(=O)c2nc(NCc3ccccc3)ncc2n2ccccc12,41.4,–,"0.58 µM [rising, partial curve]"
Cc1ccc(SCCOCCN2CCc3ccccc3C2)cc1,-34.5,"29.1 µM [falling, single point]","29.1 µM [falling, single point]"
Cc1ccc(S(=O)(=O)N2CCCCC2C(=O)N(C)c2ccccc2)cc1 (stereo not given),5.76,"6.51 µM [rising, single point]",–
COCCNC(=S)N/N=C/c1ccc(OCc2ccc(C(=O)OC)cc2)c(OC)c1,14.3,"6.51 µM [rising, partial curve]",–
CCOc1cc(Br)cc(/C=C2\SC(=Nc3ccccc3)NC2=O)c1O,-97.6,"23.1 µM [falling, single point]","16.4 µM [falling, single point]"
CCn1c(=O)cc(SCC(=O)N2CCC(C)CC2)c2ccccc21,-13.5,"6.51 µM [falling, single point]","2.59 µM [falling, single point]"
CN1CCN(c2ccc(NC(=O)c3cc(Cl)c4c(c3)OCCO4)cc2)CC1,27.5,–,–
O=S(=O)(Nc1cccc(-c2cn3c(n2)SCC3)c1)c1ccccc1,-15.7,"29.1 µM [falling, single point]",–
COc1ccc(NC(=O)c2sc3nc(N4CCOCC4)c4c(c3c2N)CC(C)(C)OC4)c(OC)c1,-8.25,"6.51 µM [falling, single point]",–
COc1ccc(N2CC(O)=C(c3nc4ccccc4s3)C2=N)cc1,-2.59,"0.411 µM [rising, partial curve, poor fit]","0.103 µM [rising, full curve, poor fit]"
O=C(CSc1nc2ccccc2c(=O)[nH]1)Nc1ccccc1O,11.5,"0.116 µM [falling, single point]",–
CCc1nc(CN2CCCC(C(=O)c3ccc4c5c(cccc35)CC4)C2)c(C)[nH]1 (stereo not given),10.1,–,–
Cc1ccccc1C(=O)NCC(=O)NCC1(N2CCOCC2)CCCCC1,6.83,–,–
COc1cccc(-c2nc(-c3ccc(NC(=O)c4cccnc4)cc3)no2)c1,1.12,"16.4 µM [rising, single point]",–
CC1(C)C2CCC1(C)C(OC(=O)c1ccc(O)cc1)C2 (stereo not given),-54.7,"20.6 µM [falling, partial curve]","29.1 µM [falling, single point]"
Cc1c(-c2n[nH]c(=S)n2-c2ccc(C(F)(F)F)cc2)nnn1-c1ccccc1,26.6,"3.66 µM [rising, full curve]",–
COc1ccc(NC(=O)/C(=C\c2ccco2)NC(=O)c2ccco2)cc1,-2.94,"0.00461 µM [rising, full curve, poor fit]",–
O=C(Nc1nnc(-c2ccccc2Cl)o1)c1cc2cc([N+](=O)[O-])ccc2s1,-38.1,–,"2.06 µM [rising, partial curve, poor fit]"
